The other results are listed elsewhere or left out. Most values lie at the level of the controls, where differences are scatter.
Compound: CN[C@@H]1C[C@H]2O[C@@](C)([C@@H]1OC)n1c3ccccc3c3c4c(c5c6ccccc6n2c5c31)C(=O)NC4 [staurosporine]
Experiment: log2 fold change of tryptic peptide abundance, ligand vs vehicle (limited proteolysis) (log2 ratio); higher = more trypsin-susceptible (destabilized)
Conditions: ligand concentration: 20 uM; sample: mouse liver crude lysate; replicate design: treated separately

By UniProt entry, the sequences of proteins in these tests, tags left out. Where a name states a change or a piece, a line headed by the entry shows the natural chain unless it says otherwise.
UniProt Q9CXG3: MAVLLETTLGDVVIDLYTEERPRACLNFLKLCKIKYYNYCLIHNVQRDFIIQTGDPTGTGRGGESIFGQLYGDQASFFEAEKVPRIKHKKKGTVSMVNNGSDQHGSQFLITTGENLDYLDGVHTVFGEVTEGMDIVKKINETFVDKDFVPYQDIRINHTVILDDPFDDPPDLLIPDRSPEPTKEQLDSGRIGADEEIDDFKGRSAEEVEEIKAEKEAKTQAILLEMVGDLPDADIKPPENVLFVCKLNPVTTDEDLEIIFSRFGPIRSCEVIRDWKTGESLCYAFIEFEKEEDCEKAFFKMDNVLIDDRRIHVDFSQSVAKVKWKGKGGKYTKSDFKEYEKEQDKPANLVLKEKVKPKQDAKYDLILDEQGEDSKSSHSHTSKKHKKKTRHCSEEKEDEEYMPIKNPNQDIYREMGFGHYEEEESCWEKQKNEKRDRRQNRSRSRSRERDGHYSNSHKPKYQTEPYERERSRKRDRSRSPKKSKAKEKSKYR
UniProt Q9CY21: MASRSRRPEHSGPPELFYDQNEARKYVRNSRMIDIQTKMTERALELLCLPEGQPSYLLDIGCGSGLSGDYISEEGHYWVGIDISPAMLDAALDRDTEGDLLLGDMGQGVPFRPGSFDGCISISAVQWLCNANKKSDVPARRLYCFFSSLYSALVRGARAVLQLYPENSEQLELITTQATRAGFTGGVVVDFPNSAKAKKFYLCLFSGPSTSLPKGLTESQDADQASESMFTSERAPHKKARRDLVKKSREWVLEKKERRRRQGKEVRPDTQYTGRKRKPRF
UniProt Q9CTH6: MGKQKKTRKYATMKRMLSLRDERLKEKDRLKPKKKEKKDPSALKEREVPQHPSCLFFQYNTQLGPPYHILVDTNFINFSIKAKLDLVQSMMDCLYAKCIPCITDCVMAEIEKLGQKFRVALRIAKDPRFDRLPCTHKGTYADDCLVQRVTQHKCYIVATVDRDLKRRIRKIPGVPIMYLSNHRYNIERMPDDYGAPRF
UniProt Q9CY58: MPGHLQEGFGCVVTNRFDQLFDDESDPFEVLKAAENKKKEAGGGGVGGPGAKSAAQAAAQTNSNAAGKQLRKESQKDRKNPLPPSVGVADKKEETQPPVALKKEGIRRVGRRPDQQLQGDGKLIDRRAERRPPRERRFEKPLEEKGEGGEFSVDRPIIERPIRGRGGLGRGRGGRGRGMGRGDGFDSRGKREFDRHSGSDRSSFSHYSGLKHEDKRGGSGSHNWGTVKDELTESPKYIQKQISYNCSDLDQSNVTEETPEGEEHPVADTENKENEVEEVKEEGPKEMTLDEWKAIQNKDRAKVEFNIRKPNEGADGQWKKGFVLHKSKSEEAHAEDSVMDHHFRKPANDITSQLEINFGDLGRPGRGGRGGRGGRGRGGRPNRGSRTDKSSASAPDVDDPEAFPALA
UniProt Q9CYH6: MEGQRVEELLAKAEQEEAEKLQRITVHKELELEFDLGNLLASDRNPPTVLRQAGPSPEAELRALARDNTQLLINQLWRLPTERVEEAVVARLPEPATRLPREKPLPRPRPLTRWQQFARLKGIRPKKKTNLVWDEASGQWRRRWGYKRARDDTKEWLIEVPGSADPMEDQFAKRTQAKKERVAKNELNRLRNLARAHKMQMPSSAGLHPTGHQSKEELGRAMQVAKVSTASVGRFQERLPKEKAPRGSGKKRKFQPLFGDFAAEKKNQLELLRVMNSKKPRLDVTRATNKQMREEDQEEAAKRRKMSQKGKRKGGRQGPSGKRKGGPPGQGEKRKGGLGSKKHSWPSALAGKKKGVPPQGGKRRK
UniProt Q9CXF0: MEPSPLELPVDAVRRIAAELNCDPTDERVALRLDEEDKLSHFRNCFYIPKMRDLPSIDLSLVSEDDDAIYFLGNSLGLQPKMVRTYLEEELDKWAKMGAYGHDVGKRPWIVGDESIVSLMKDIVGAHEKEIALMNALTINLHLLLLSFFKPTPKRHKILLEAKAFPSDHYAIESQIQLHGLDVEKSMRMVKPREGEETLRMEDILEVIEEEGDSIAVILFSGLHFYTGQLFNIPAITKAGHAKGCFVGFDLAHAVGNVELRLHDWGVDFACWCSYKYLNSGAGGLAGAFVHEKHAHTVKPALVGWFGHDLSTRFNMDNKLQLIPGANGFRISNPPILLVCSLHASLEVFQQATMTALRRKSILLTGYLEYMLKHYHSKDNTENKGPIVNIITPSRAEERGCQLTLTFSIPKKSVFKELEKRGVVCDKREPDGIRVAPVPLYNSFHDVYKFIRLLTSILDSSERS
UniProt Q9CX34: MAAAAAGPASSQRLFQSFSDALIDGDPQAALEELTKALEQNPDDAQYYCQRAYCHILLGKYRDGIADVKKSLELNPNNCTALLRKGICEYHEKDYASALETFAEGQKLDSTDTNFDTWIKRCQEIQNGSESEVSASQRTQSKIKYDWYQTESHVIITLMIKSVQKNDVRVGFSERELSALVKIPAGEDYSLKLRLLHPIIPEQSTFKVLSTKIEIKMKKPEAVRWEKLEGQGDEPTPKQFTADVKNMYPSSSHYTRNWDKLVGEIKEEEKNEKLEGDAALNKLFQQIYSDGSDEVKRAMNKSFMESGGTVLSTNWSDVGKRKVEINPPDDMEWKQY
UniProt Q9CR63: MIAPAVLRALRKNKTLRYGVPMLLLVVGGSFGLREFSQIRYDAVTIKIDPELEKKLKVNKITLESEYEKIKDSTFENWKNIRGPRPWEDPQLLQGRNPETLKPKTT
UniProt Q9CXI5: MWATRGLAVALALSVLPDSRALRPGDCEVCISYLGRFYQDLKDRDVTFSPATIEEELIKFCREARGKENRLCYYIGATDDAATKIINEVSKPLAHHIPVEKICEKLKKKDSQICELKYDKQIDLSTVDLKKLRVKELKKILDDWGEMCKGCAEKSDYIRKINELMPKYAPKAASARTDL
UniProt Q9CZD3: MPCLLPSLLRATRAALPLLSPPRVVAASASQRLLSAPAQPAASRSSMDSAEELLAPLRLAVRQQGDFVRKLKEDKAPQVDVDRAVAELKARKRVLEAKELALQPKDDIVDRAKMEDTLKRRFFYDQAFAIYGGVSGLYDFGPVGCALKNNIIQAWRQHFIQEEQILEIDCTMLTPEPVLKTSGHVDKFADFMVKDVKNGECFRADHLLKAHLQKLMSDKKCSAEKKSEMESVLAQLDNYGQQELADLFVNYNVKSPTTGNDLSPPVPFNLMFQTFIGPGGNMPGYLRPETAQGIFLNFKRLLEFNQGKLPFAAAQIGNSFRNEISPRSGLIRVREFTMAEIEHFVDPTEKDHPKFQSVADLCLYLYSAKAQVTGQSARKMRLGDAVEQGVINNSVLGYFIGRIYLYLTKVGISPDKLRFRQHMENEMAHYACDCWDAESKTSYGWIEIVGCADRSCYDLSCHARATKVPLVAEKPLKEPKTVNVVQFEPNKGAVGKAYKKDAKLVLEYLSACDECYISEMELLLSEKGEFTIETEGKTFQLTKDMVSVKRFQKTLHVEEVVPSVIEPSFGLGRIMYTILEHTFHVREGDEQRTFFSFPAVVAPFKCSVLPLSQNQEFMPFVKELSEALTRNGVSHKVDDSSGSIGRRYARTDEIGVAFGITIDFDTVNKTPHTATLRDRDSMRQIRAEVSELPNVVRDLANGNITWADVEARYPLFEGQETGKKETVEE
UniProt Q9CZ83, whole entry: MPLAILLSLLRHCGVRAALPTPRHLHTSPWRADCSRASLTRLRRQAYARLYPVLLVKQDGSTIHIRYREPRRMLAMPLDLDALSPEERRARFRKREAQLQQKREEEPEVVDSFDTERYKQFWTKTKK
UniProt Q9CY62: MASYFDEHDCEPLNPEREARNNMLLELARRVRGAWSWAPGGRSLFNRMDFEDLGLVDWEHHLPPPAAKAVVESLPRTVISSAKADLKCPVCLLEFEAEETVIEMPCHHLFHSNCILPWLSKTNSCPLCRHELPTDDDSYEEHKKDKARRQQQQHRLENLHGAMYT
UniProt Q9CZ44: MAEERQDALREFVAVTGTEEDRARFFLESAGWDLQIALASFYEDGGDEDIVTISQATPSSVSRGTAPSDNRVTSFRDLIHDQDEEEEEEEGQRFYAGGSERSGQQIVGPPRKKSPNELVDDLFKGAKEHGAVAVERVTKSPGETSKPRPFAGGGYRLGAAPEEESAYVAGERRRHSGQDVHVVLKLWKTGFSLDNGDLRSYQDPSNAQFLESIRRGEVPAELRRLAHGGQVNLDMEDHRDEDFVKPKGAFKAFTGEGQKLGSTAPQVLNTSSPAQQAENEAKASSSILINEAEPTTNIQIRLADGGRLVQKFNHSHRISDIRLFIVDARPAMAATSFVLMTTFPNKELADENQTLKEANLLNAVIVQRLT
UniProt Q9CWY3: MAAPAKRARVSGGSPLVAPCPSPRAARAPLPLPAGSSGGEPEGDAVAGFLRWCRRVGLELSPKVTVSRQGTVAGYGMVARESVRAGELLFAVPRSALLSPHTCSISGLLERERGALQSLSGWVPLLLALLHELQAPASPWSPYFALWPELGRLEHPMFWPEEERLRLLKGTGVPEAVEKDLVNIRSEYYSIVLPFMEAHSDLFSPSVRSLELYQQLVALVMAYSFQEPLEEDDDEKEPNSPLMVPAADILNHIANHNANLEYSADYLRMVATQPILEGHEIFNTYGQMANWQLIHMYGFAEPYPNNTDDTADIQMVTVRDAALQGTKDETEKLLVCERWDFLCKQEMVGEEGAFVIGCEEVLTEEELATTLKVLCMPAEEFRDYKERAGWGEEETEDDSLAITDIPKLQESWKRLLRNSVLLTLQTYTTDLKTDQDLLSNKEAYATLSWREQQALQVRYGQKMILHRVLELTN
UniProt Q9CR70: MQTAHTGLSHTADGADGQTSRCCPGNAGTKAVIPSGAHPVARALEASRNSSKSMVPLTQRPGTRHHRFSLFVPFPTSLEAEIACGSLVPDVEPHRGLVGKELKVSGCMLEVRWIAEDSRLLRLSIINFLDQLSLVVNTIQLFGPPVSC
UniProt Q9CWT3: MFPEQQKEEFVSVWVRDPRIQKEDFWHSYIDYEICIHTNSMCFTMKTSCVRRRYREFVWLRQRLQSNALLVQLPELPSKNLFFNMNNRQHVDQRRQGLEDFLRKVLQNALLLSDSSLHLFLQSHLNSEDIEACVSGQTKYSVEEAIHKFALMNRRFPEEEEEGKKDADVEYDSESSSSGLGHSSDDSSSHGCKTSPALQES
UniProt Q9CRB3: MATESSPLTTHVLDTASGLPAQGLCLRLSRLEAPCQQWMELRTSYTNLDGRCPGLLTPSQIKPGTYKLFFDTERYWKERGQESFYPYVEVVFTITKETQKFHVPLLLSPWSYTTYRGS
UniProt Q9CWK8: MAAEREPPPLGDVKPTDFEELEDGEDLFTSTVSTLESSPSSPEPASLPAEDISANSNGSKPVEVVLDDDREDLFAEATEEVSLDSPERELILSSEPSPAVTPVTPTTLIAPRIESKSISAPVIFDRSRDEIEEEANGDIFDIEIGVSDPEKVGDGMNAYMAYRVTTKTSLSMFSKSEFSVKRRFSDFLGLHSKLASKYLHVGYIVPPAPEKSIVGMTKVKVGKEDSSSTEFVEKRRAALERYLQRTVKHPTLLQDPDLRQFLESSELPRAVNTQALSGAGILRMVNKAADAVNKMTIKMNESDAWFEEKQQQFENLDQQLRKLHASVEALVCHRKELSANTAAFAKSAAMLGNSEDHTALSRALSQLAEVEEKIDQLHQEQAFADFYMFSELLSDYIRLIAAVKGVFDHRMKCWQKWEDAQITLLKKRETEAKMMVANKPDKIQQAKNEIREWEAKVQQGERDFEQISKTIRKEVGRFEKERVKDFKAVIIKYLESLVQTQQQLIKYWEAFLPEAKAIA
UniProt Q9CZP7: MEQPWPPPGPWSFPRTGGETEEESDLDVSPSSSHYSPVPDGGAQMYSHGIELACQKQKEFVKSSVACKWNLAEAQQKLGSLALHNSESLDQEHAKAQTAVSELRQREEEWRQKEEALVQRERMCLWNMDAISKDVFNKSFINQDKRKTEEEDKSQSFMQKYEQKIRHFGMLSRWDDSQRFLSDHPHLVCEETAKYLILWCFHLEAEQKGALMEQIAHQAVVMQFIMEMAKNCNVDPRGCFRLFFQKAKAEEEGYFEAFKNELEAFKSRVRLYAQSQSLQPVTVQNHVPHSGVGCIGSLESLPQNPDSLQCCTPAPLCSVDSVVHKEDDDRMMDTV
UniProt Q9D0J4: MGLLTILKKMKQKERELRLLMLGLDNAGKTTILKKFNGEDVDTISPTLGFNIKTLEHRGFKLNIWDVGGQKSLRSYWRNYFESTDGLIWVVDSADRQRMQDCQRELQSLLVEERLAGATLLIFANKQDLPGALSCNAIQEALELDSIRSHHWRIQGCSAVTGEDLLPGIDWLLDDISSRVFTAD
UniProt Q9D0R9: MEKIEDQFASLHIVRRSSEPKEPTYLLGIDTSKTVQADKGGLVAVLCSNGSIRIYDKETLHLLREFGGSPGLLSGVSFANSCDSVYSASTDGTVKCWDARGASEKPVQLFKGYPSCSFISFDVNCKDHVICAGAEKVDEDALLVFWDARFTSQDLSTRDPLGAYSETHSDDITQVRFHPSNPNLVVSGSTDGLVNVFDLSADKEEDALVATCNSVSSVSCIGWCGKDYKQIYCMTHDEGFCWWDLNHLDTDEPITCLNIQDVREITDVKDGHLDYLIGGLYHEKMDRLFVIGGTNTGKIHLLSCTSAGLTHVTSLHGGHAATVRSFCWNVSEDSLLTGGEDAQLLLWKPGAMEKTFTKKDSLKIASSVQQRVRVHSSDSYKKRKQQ

Target	log2 fold change
UniProt Q9D0Y8 (peptide sequence: GTLLRSPLPNQ, peptide start residue: 111)	-0.0923
UniProt Q9CXG3 (peptide sequence: IHVDFSQSVAK, peptide start residue: 311)	0.218
UniProt Q9CY21 (peptide sequence: SRRPEHSGPPELFYDQNEAR, peptide start residue: 5)	-0.349
UniProt Q9CTH6 (peptide sequence: GTYADDCLVQR, peptide start residue: 138)	0.34
UniProt Q9CZ30 (peptide sequence: LKPEYDIMCK, peptide start residue: 179)	0.176
UniProt Q9CY58 (peptide sequence: SSFSHYSGLK, peptide start residue: 202)	0.091
UniProt Q9CYH6 (peptide sequence: KHSWPSALAGKK, peptide start residue: 342)	-0.204
UniProt Q9CRB6 (peptide sequence: VINYEEFKK, peptide start residue: 69)	0.349
UniProt Q9CXF0 (peptide sequence: LQLIPGANGFR, peptide start residue: 320)	-0.194
UniProt Q9CX34 (peptide sequence: LFQQIYSDGSDEVKR, peptide start residue: 283)	-0.123
UniProt Q9CR63 (peptide sequence: MIAPAVLR, peptide start residue: 1)	0.281
UniProt Q9CXI5 (peptide sequence: KINELMPK, peptide start residue: 160)	0.142
UniProt Q9CZD3 (peptide sequence: ELALQPKDDIVDR, peptide start residue: 99)	-0.215
UniProt Q9CZ83 (peptide sequence: REEEPEVVDSFDTER, peptide start residue: 103)	-0.109
UniProt Q9CY62 (peptide sequence: HELPTDDDSYEEHKKDK, peptide start residue: 130)	0.211
UniProt Q9CZ44 (peptide sequence: EANLLNAVIVQR, peptide start residue: 357)	-0.519
UniProt Q9CWY3 (peptide sequence: ARVSGGSPLVAPCPSPR, peptide start residue: 8)	0.492
UniProt Q9CR70 (peptide sequence: SMVPLTQRPGTR, peptide start residue: 53)	-0.263
UniProt Q9CWT3 (peptide sequence: YSVEEAIHK, peptide start residue: 140)	0.12
UniProt Q9CRB3 (peptide sequence: TSYTNLDGR, peptide start residue: 43)	-0.386
UniProt Q9CWK8 (peptide sequence: YWEAFLPEAK, peptide start residue: 507)	0.0934
UniProt Q9CZP7 (peptide sequence: QREEEWR, peptide start residue: 105)	-0.238
UniProt Q9D0J4 (peptide sequence: LLMLGLDNAGK, peptide start residue: 19)	0.117
UniProt Q9D0R9 (peptide sequence: IEDQFASLHIVR, peptide start residue: 4)	0.482

For reference, part of the list above.
Target	log2 fold change
UniProt Q9CY62 (peptide sequence: HELPTDDDSYEEHKKDK, peptide start residue: 130)	0.211
UniProt Q9CZ44 (peptide sequence: EANLLNAVIVQR, peptide start residue: 357)	-0.519
